Data taken from ChEMBL document CHEMBL3988442, “University of Dundee, Small-Polar-MMV Screening Library” (2021).

A: 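Whole-cell assay for inhibitors of Mycobacterium tuberculosis growth, labelled Cornell in the record; the read-out is not stated. The concentration is filed as 10 mM, unlikely as a test dose, so the dose is not known. The record gives no direction; compounds strong in two other growth screens of this library score well above the rest, so higher reads as stronger inhibition. Size under these conditions: about 53,000 compounds, about 900 of them at 50% or above in at least one test.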
B: 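Assay on Mycobacterium tuberculosis, filed only as a heat shock assay from Cornell; the read-out is not stated. The concentration is filed as 10 mM, unlikely as a test dose, so the dose is not known. Direction is inferred from retests: higher values go with stronger inhibition. About 69,000 compounds were tested under these conditions; 1.4% (about 930) showed 50% or more at least once.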

The filed quantity is “Percent Effect” (%). The record does not define 0% and 100%; most values in the screen are far below 50% and negative numbers occur (in some assays of this library far below -100). This is an unselected part of the compounds tested.

COc1ccccc1C(NCc1ccc(SC)cc1)c1nccn1C (centres undefined) read B: 111.2%. With O=C(O)C(F)(F)F.[H][C@@]12CC(=O)N(c3ccsc3)[C@@]1([H])CCN2Cc1ccco1 the screen gave A: -56.06%; B: -33.34%. For COc1c(CNCc2cccc(Cn3ccnc3)c2)c(C)nn1C the result was A: 0.6071%; B: 9.469%. For CC(C)c1cc(C(F)(F)F)n2nc(C3CCN(S(C)(=O)=O)C3)cc2n1 (centres undefined) the result was A: 9.667%; B: 8.037%. CC(C)(O)CN1CCN(C(=O)c2sccc2C2CC2)CC1 read B: 1.904%. For CC(C)Nc1cccc(CNC(=O)N2CCCC2)c1 the result was A: -21.98%; B: 9.655%. For CCC1(CNCc2ncc[nH]2)CCCC1 the result was B: 2.015%.

Result for c1cn(Cc2nnc(C3CCN(C4CCCCC4)CC3)n2C2CC2)cn1 was A: 11.83%; B: 6.831%. With O=C(c1cnc2ccc(F)cc2c1NCc1ccccn1)N1CCCC1 the screen gave A: 5.685%; B: -24.9%. COc1ccc(NC(=O)Cn2c(=O)nc(N)c3cc(C)sc32)cc1 gave A: 0.3474%; B: 16.86%. Result for O=C(c1ccc(-n2cnnn2)cc1)N1CCCC(n2ccnc2)C1 (centres undefined) was A: -1.997%; B: 3.169%. With O=C(c1ccco1)N1CCC2(CCC(=O)N2Cc2ccccc2)CC1 the screen gave A: 27.83%; B: 6.48%. Result for CCn1ncc2c1CCCC2NCc1ccc2c(c1)OCCO2 (centres undefined) was B: 4.656%. O=C(O)C(F)(F)F.O=C(O)C(F)(F)F.[H][C@@]12CCN(CCN3CCCCC3)C[C@]1(C(=O)N1CCOCC1)CCO2 gave B: -7.051%.

CCCc1nc(C(=O)N2C[C@H](CO)C[C@H](CN3CCOCC3)C2)cs1 read B: -7.342%. With O=C(Nc1cccc(F)c1)C1CCN(Cc2noc(C3CC3)n2)CC1 the screen gave A: -18.23%; B: 9.224%. For O=C(O)C(F)(F)F.[H][C@@]12CCN(Cc3cn(C)c4ccccc34)[C@]1([H])CC[C@@H](C(=O)NC(C)C)O2 the result was A: 11.7%; B: 9.906%. Result for CN1CCCC1c1nccnc1-c1ccc(C(=O)O)cc1 (centres undefined) was A: -17.97%; B: -5.036%. With Cc1csc(C(=O)N2CCC(S(C)(=O)=O)C2)c1 (centres undefined) the screen gave A: -10.98%; B: 11.41%. CN(C)C(=O)c1noc2c1CN(C(=O)CCCN1CCCCC1)CC2 read A: -14.72%; B: -4.872%. Cc1ccc(C(=O)Nc2ccccc2N2CCCC2)n1C read A: -19.32%; B: -20.65%.

With CCc1cc(=O)[nH]c2nnc(SCC(=O)NC(C)C)n12 the screen gave A: 0.8336%; B: 2.708%. Cn1c(NC(=O)CNC(=O)C2CC2)nc2cc(Cl)ccc21 gave A: -3.36%; B: -8.073%.

For reference, 3 entries once more:

Result for CCc1cc(=O)[nH]c2nnc(SCC(=O)NC(C)C)n12 was A: 0.8336%; B: 2.708%.
Result for O=C(c1ccc(-n2cnnn2)cc1)N1CCCC(n2ccnc2)C1 (centres undefined) was A: -1.997%; B: 3.169%.
Result for O=C(O)C(F)(F)F.O=C(O)C(F)(F)F.[H][C@@]12CCN(CCN3CCCCC3)C[C@]1(C(=O)N1CCOCC1)CCO2 was B: -7.051%.